No constants are given. Whether binding was seen depends on the method and setting. In cells and extracts the contact can be indirect. Some binding calls cover weakened binding; strength is not graded here.
Legend:
[1] = target: T1, claudin-5 (rat (endogenous in primary alveolar epithelial cells)) (UniProt Q9JKD6); assay: co-IP; primary rat AECs, 6 days on Transwell supports; lysed in DPBS with Ca2+/Mg2+ and 0.1% Triton X-100, sonicated; precleared supernatant with antibody on protein A magnetic beads overnight at 4 °C; immunoblot
T1 sequence: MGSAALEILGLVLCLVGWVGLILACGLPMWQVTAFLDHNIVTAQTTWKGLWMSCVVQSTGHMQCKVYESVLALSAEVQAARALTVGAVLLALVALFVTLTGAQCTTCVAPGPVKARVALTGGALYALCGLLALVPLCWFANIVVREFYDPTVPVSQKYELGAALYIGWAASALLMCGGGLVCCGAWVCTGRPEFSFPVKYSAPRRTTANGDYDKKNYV

Chains of the proteins cited; added tags and fusions are not shown.
UniProt A0ACM8Q5W3: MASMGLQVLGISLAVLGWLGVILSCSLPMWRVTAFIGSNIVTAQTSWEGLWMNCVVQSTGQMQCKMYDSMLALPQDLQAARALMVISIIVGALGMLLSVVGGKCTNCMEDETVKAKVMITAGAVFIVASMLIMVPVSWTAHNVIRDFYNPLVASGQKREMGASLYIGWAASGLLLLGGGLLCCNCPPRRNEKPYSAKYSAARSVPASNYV
UniProt A0A0G2K2P5: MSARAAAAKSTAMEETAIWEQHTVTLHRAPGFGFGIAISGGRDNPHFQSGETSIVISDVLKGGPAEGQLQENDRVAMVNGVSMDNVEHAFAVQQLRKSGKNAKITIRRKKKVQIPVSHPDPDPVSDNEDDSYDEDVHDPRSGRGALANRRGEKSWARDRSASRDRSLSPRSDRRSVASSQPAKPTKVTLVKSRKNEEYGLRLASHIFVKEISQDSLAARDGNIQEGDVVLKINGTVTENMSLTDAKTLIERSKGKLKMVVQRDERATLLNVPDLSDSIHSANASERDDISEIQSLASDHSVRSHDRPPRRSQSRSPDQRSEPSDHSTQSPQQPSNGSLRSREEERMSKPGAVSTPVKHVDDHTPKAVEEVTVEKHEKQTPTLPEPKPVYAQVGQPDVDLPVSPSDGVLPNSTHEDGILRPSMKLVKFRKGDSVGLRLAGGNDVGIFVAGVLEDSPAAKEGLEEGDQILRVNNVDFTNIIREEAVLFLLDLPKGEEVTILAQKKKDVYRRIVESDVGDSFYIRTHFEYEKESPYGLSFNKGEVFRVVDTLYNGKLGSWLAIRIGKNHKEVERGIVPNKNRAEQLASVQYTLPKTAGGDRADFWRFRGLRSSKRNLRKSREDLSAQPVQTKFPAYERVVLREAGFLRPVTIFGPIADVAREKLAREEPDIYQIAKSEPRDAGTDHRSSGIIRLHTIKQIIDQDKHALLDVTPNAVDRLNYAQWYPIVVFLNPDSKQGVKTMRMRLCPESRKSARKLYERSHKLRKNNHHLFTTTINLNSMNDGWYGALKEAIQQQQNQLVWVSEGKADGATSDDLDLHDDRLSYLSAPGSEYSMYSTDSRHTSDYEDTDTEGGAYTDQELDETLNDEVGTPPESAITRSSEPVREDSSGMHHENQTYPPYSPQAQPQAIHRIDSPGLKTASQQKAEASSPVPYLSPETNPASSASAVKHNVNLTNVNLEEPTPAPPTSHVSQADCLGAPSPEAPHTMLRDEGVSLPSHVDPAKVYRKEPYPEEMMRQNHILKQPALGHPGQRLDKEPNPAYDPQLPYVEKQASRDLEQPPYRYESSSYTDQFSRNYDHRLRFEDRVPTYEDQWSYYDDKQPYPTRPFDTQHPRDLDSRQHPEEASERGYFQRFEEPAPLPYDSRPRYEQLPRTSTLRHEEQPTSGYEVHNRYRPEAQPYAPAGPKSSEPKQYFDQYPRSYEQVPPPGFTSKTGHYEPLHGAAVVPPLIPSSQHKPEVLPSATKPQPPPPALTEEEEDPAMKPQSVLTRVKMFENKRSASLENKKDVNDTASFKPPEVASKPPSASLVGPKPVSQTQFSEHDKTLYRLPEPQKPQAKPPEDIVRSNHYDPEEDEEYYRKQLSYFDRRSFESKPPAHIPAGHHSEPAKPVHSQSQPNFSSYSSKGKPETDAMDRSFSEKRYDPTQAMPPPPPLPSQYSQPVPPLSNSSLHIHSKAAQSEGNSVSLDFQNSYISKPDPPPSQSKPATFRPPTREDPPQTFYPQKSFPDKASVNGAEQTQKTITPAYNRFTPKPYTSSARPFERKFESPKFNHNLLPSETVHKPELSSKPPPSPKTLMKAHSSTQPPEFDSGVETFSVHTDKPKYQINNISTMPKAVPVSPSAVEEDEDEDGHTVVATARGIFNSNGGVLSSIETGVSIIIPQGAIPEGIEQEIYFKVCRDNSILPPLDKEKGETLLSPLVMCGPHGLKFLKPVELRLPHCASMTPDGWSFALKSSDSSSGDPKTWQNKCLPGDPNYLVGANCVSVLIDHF

[2] = target: T1, claudin-5 (rat (endogenous in primary alveolar epithelial cells)); assay: proximity ligation; primary rat AECs from control- or alcohol-fed rats, 6 days on Transwell supports, fixed with methanol/acetone; pairs of mouse and rabbit primary antibodies, Duolink detection Kit Red; number of clusters above threshold counted
[3] = target: zonula occludens 1 (rat (endogenous in primary alveolar epithelial cells)); assay: as above

claudin-4 (from UniProt A0ACM8Q5W3 1-210)
binding [1]: binds

zonula occludens 1 (from UniProt A0A0G2K2P5 1-1765)
binding [2]: binds
binding [1]: binds

B1: claudin-18 (protein, UniProt Q5I0E5 1-261)
chain: MATTTCQVVGLLLSLLGLAGCIAATGMDMWSTQDLYDNPVTSVFQYEGLWRSCVQQSSGFTECRPYFTILGLPAMLQAVRALMIVGIVLGVIGILVSIFALKCIRIGSMDDSAKAKMTLTSGIMFIISGVCAIIGVSVFANMLVTNFWMSTANMYSGMGGMVQTVQTRYTFGAALFVGWIAGGLTLIGGVMMCIACRGLTPDDRNFKAVSYHASGQNVAYKPGGFKASTGFGSNARNKKIYDGGARTEDDEQSHPTKYDYV
binding [2]: binds
binding [3]: binds
binding [1]: binds

— paper PMC4962485
